{"source": "PubChem BioAssay AID504791 (Drosophila RNAi Screening Center, 2011)", "assay": "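Genes of the fly required for silencing by miRNA, siRNA or endo-siRNA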 (primary screen)", "system": "Drosophila S2-derived reporter cells", "knock-down reagent": "long dsRNA against Drosophila genes, about 150-250 ng dsRNA per well (siRNA assay); about 80-120 ng (miRNA assay)", "duration": "about 5 days (siRNA assay); about 4 days (miRNA assay)", "conditions": "copper sulfate induction of reporters: 25 µM (siRNA assay); 200 mM stated (miRNA assay), 1-2 days before reading", "measurement": "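Dual luciferase assay: Renilla to firefly signal ratio in each well, scaled to the mean ratio of its plate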", "rule for the call": "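First-pass picks had plate-scaled ratios over 1.5 for the siRNA assay, over 1.6 for the miRNA assay, or under 0.6; two distinct dsRNAs had to score alike on retest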", "note": "In all, the deposit lists about 23,000 reagents; below is a random part of those that have a named target and a result. Over the whole deposit, 199 (0.86%) were called active. 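Plate-scaled ratios behind the calls are not deposited; printed light signals are raw; many rows marked increased or decreased are still called inactive.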 A plus sign joins genes that one reagent is predicted to hit. Not given: the direction of the score."}
{"gene knocked down": "mib1", "DRSC id": "DRSC10550", "stable assay Renilla, run 1 (luminescence)": 7795, "stable assay firefly, run 1 (luminescence)": 3.51e5, "outcome": "inactive"}
{"gene knocked down": "Vha100-1", "DRSC id": "DRSC14148", "stable assay Renilla, run 1 (luminescence)": 8800, "stable assay firefly, run 1 (luminescence)": 5.13e5, "outcome": "inactive"}
{"gene knocked down": "CG31195", "DRSC id": "DRSC13440", "stable assay Renilla, run 1 (luminescence)": 4688, "stable assay firefly, run 1 (luminescence)": 4.34e5, "outcome": "inactive"}
{"gene knocked down": "lt", "DRSC id": "DRSC03759", "stable assay Renilla, run 1 (luminescence)": 6694, "stable assay firefly, run 1 (luminescence)": 4.79e5, "outcome": "inactive"}
{"gene knocked down": "ZnT35C", "DRSC id": "DRSC01959", "stable assay Renilla, run 1 (luminescence)": 6751, "stable assay firefly, run 1 (luminescence)": 4.79e5, "outcome": "inactive"}
{"gene knocked down": "CG10863", "DRSC id": "DRSC08145", "miRNA reporter change": "reporter ratio lowered past the hit cutoff", "stable assay Renilla, run 1 (luminescence)": 7854, "stable assay firefly, run 1 (luminescence)": 5.04e5, "outcome": "active"}
{"gene knocked down": "Myo31DF", "DRSC id": "DRSC03376", "stable assay Renilla, run 1 (luminescence)": 7290, "stable assay firefly, run 1 (luminescence)": 6.31e5, "outcome": "inactive"}
{"gene knocked down": "Myo31DF", "DRSC id": "DRSC22702", "stable assay Renilla, run 1 (luminescence)": 3663, "stable assay firefly, run 1 (luminescence)": 2.91e5, "outcome": "inactive"}
{"gene knocked down": "spir", "DRSC id": "DRSC03619", "stable assay Renilla, run 1 (luminescence)": 7971, "stable assay firefly, run 1 (luminescence)": 5.02e5, "outcome": "inactive"}
{"gene knocked down": "Ndfip", "DRSC id": "DRSC11201", "stable assay Renilla, run 1 (luminescence)": 9569, "stable assay firefly, run 1 (luminescence)": 3.66e5, "outcome": "inactive"}
{"gene knocked down": "Cpr67Fa1", "DRSC id": "DRSC10932", "stable assay Renilla, run 1 (luminescence)": 5091, "stable assay firefly, run 1 (luminescence)": 3.20e5, "outcome": "inactive"}
{"gene knocked down": "Desat1", "DRSC id": "DRSC16668", "stable assay Renilla, run 1 (luminescence)": 4944, "stable assay firefly, run 1 (luminescence)": 2.48e5, "outcome": "inactive"}
{"gene knocked down": "Pex13", "DRSC id": "DRSC06877", "stable assay Renilla, run 1 (luminescence)": 8639, "stable assay firefly, run 1 (luminescence)": 4.94e5, "outcome": "inactive"}
{"gene knocked down": "mRpL39", "DRSC id": "DRSC10255", "stable assay Renilla, run 1 (luminescence)": 7086, "stable assay firefly, run 1 (luminescence)": 3.90e5, "outcome": "inactive"}
{"gene knocked down": "l(2)41Ab", "DRSC id": "DRSC21007", "stable assay Renilla, run 1 (luminescence)": 3999, "stable assay firefly, run 1 (luminescence)": 3.95e5, "outcome": "inactive"}
{"gene knocked down": "CG18542 + CG32939", "DRSC id": "DRSC15342", "stable assay Renilla, run 1 (luminescence)": 8369, "stable assay firefly, run 1 (luminescence)": 3.83e5, "outcome": "inactive"}
{"gene knocked down": "CG42249", "DRSC id": "DRSC19383", "stable assay Renilla, run 1 (luminescence)": 5122, "stable assay firefly, run 1 (luminescence)": 3.69e5, "outcome": "inactive"}
{"gene knocked down": "CG42249", "DRSC id": "DRSC19826", "stable assay Renilla, run 1 (luminescence)": 5131, "stable assay firefly, run 1 (luminescence)": 5.02e5, "outcome": "inactive"}
{"gene knocked down": "Zif", "DRSC id": "DRSC12514", "stable assay Renilla, run 1 (luminescence)": 5864, "stable assay firefly, run 1 (luminescence)": 3.50e5, "outcome": "inactive"}
{"gene knocked down": "CG13607", "DRSC id": "DRSC14610", "stable assay Renilla, run 1 (luminescence)": 8442, "stable assay firefly, run 1 (luminescence)": 4.50e5, "outcome": "inactive"}

Records listed so far whose gene name begins with C or c (7):
{"gene knocked down": "CG31195", "DRSC id": "DRSC13440", "stable assay Renilla, run 1 (luminescence)": 4688, "stable assay firefly, run 1 (luminescence)": 4.34e5, "outcome": "inactive"}
{"gene knocked down": "CG10863", "DRSC id": "DRSC08145", "miRNA reporter change": "reporter ratio lowered past the hit cutoff", "stable assay Renilla, run 1 (luminescence)": 7854, "stable assay firefly, run 1 (luminescence)": 5.04e5, "outcome": "active"}
{"gene knocked down": "Cpr67Fa1", "DRSC id": "DRSC10932", "stable assay Renilla, run 1 (luminescence)": 5091, "stable assay firefly, run 1 (luminescence)": 3.20e5, "outcome": "inactive"}
{"gene knocked down": "CG18542 + CG32939", "DRSC id": "DRSC15342", "stable assay Renilla, run 1 (luminescence)": 8369, "stable assay firefly, run 1 (luminescence)": 3.83e5, "outcome": "inactive"}
{"gene knocked down": "CG42249", "DRSC id": "DRSC19383", "stable assay Renilla, run 1 (luminescence)": 5122, "stable assay firefly, run 1 (luminescence)": 3.69e5, "outcome": "inactive"}
{"gene knocked down": "CG42249", "DRSC id": "DRSC19826", "stable assay Renilla, run 1 (luminescence)": 5131, "stable assay firefly, run 1 (luminescence)": 5.02e5, "outcome": "inactive"}
{"gene knocked down": "CG13607", "DRSC id": "DRSC14610", "stable assay Renilla, run 1 (luminescence)": 8442, "stable assay firefly, run 1 (luminescence)": 4.50e5, "outcome": "inactive"}

The results go on:
{"gene knocked down": "Pif2", "DRSC id": "DRSC12525", "stable assay Renilla, run 1 (luminescence)": 7459, "stable assay firefly, run 1 (luminescence)": 3.84e5, "outcome": "inactive"}
{"gene knocked down": "Ugt36F1", "DRSC id": "DRSC02601", "stable assay Renilla, run 1 (luminescence)": 6666, "stable assay firefly, run 1 (luminescence)": 3.60e5, "outcome": "inactive"}
{"gene knocked down": "Bcs1", "DRSC id": "DRSC02789", "stable assay Renilla, run 1 (luminescence)": 7335, "stable assay firefly, run 1 (luminescence)": 3.67e5, "outcome": "inactive"}
{"gene knocked down": "CG1737", "DRSC id": "DRSC19771", "stable assay Renilla, run 1 (luminescence)": 5127, "stable assay firefly, run 1 (luminescence)": 4.36e5, "outcome": "inactive"}
{"gene knocked down": "CG13560", "DRSC id": "DRSC04198", "stable assay Renilla, run 1 (luminescence)": 5939, "stable assay firefly, run 1 (luminescence)": 3.72e5, "outcome": "inactive"}
{"gene knocked down": "CG32237", "DRSC id": "DRSC08312", "stable assay Renilla, run 1 (luminescence)": 7239, "stable assay firefly, run 1 (luminescence)": 5.74e5, "outcome": "inactive"}
{"gene knocked down": "CG32237", "DRSC id": "DRSC08315", "stable assay Renilla, run 1 (luminescence)": 6339, "stable assay firefly, run 1 (luminescence)": 4.47e5, "outcome": "inactive"}
{"gene knocked down": "AttC", "DRSC id": "DRSC06886", "stable assay Renilla, run 1 (luminescence)": 6315, "stable assay firefly, run 1 (luminescence)": 3.39e5, "outcome": "inactive"}
{"gene knocked down": "EMC7", "DRSC id": "DRSC07162", "stable assay Renilla, run 1 (luminescence)": 5682, "stable assay firefly, run 1 (luminescence)": 3.20e5, "outcome": "inactive"}
{"gene knocked down": "angel", "DRSC id": "DRSC04670", "stable assay Renilla, run 1 (luminescence)": 7468, "stable assay firefly, run 1 (luminescence)": 6.67e5, "outcome": "inactive"}
{"gene knocked down": "angel", "DRSC id": "DRSC21326", "stable assay Renilla, run 1 (luminescence)": 10737, "stable assay firefly, run 1 (luminescence)": 6.58e5, "outcome": "inactive"}
{"gene knocked down": "Dera", "DRSC id": "DRSC07207", "stable assay Renilla, run 1 (luminescence)": 7707, "stable assay firefly, run 1 (luminescence)": 2.93e5, "outcome": "inactive"}
{"gene knocked down": "Dera", "DRSC id": "DRSC21336", "stable assay Renilla, run 1 (luminescence)": 9242, "stable assay firefly, run 1 (luminescence)": 4.59e5, "outcome": "inactive"}
{"gene knocked down": "CG30344", "DRSC id": "DRSC22510", "stable assay Renilla, run 1 (luminescence)": 3599, "stable assay firefly, run 1 (luminescence)": 3.62e5, "outcome": "inactive"}
{"gene knocked down": "Arv1", "DRSC id": "DRSC11491", "stable assay Renilla, run 1 (luminescence)": 5443, "stable assay firefly, run 1 (luminescence)": 3.31e5, "outcome": "inactive"}
